Source: PubChem BioAssay AID1508588 (Peter MacCallum Cancer Centre, 2020)
Test: 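Knock-downs boosting vemurafenib effects on melanoma cell growth or lactate release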 (primary screen). Cells: human WM266.4 melanoma cells (BRAF V600 mutant). Reagents: siRNA pool against human genes, 40 nM. Time to read-out: 96 h from transfection to read-out. Conditions: vemurafenib 300 nM (about IC25), added 48 h after transfection, for 48 h; comparison arm got DMSO vehicle only. Detection: 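Ratios to non-targeting siRNA for cell gain, counted as DAPI nuclei after minus before drug and averaged over two replicates, and for absorbance-read medium lactate per cell; both binned into fold-change classes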. Scale: cell gain with vemurafenib: higher = more cell gain than with non-targeting siRNA; lactate per cell with vemurafenib: higher = more lactate made per cell. Hit rule: 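Enhancement is called by pairing each knock-down's vehicle-arm and drug-arm fold-change classes for viability or glycolysis; which class combinations qualify is not given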. Meaning of the calls: active = enhances vemurafenib effect; inactive = no enhancement seen.
In all, the deposit lists about 18,000 reagents; this is an unselected part. Over the whole deposit, 790 (4.4%) were called active. 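Calls rest on a combination of fold-change classes in drug and vehicle arms, not all shown here.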

CDK17 (cyclin dependent kinase 17) scored cell gain with vemurafenib 0.99; lactate per cell with vemurafenib 0.74; inactive.
With knock-down of RBM11 (RNA binding motif protein 11), the record shows cell gain with vemurafenib 0.45; lactate per cell with vemurafenib 1.23; inactive.
RAB38 (RAB38, member RAS oncogene family) scored cell gain with vemurafenib 0.03; lactate per cell with vemurafenib 1.54; inactive.
Against SFXN5 (sideroflexin 5), the entry reads cell gain with vemurafenib -0.06; lactate per cell with vemurafenib 0.64; inactive.
After knock-down of OR6T1 (olfactory receptor family 6 subfamily T member 1), the record shows cell gain with vemurafenib 0.44; lactate per cell with vemurafenib 1.25; inactive.
Against ATXN2L (ataxin 2 like) the deposit lists cell gain with vemurafenib 0.74; lactate per cell with vemurafenib 0.1; active.
H4C2 (H4 clustered histone 2) scored cell gain with vemurafenib 0.7; lactate per cell with vemurafenib 0.86; inactive.
After knock-down of PPID (peptidylprolyl isomerase D), the screen gave cell gain with vemurafenib 0.57; lactate per cell with vemurafenib 0.31; inactive.
After knock-down of ZNF619 (zinc finger protein 619), the record shows cell gain with vemurafenib 0.94; lactate per cell with vemurafenib 0.66; inactive.
SF3B1 (splicing factor 3b subunit 1) scored cell gain with vemurafenib 0.02; lactate per cell with vemurafenib 1.96; inactive.
Against OPRPN (opiorphin prepropeptide) the deposit lists cell gain with vemurafenib 0.58; lactate per cell with vemurafenib 1.56; inactive.
With knock-down of VPS37D (VPS37D subunit of ESCRT-I), the record shows cell gain with vemurafenib 0.6; lactate per cell with vemurafenib 0.84; inactive.
For RING1 (ring finger protein 1) the deposit lists cell gain with vemurafenib 0.33; lactate per cell with vemurafenib 2.27; inactive.
After knock-down of RNF157 (ring finger protein 157) the results were cell gain with vemurafenib 1.01; lactate per cell with vemurafenib 0.44; inactive.
With knock-down of FBXO28 (F-box protein 28), the screen gave cell gain with vemurafenib 0.93; lactate per cell with vemurafenib 0.68; inactive.
For HACE1, the entry reads cell gain with vemurafenib 0.31; lactate per cell with vemurafenib 0.82; inactive.
Against CIC (capicua transcriptional repressor), the values are cell gain with vemurafenib 1.16; lactate per cell with vemurafenib 0.35; inactive.
PDE6A (phosphodiesterase 6A) showed cell gain with vemurafenib 0.33; lactate per cell with vemurafenib 0.64; inactive.
EFHB (EF-hand domain family member B) gave cell gain with vemurafenib 0.32; lactate per cell with vemurafenib 1.48; inactive.
After knock-down of ZNF16 (zinc finger protein 16), the record shows cell gain with vemurafenib 0.4; lactate per cell with vemurafenib 2.12; inactive.
Knock-down of SUGP1 (SURP and G-patch domain containing 1) gave: cell gain with vemurafenib 0.64; lactate per cell with vemurafenib 1.12; inactive.
With knock-down of RUSC1-AS1 (RUSC1 antisense RNA 1), the screen gave cell gain with vemurafenib 0.84; lactate per cell with vemurafenib 0.74; inactive.
Knock-down of SRC (SRC proto-oncogene, non-receptor tyrosine kinase) gave: cell gain with vemurafenib 0.19; lactate per cell with vemurafenib 0.56; inactive.
For AKR1B15 (aldo-keto reductase family 1 member B15), the values are cell gain with vemurafenib 0.78; lactate per cell with vemurafenib 0.73; inactive.
For SULT1C2 (sulfotransferase family 1C member 2), the entry reads cell gain with vemurafenib 0.34; lactate per cell with vemurafenib 1.06; inactive.
Depletion of LIPE (lipase E, hormone sensitive type) resulted in: cell gain with vemurafenib 0.34; lactate per cell with vemurafenib 0.97; inactive.
PRAMEF2 (PRAME family member 2) gave cell gain with vemurafenib 1.21; lactate per cell with vemurafenib 0.6; inactive.
After knock-down of H2AC14 (H2A clustered histone 14), the screen gave cell gain with vemurafenib 0.86; lactate per cell with vemurafenib 0.47; active.
TINAG (tubulointerstitial nephritis antigen) showed cell gain with vemurafenib 0.68; lactate per cell with vemurafenib 0.99; inactive.
C1orf53 (chromosome 1 open reading frame 53) scored cell gain with vemurafenib 0.67; lactate per cell with vemurafenib 1.46; inactive.
Knock-down of SMCP (sperm mitochondria associated cysteine rich protein) resulted in: cell gain with vemurafenib 0.77; lactate per cell with vemurafenib 0.68; inactive.
Depletion of IL13RA2 (interleukin 13 receptor subunit alpha 2) came out at: cell gain with vemurafenib 0.49; lactate per cell with vemurafenib 1.72; inactive.
With knock-down of GOLGA1 (golgin A1), the record shows cell gain with vemurafenib 0.68; lactate per cell with vemurafenib 0.86; inactive.
For DNAJB12 (DnaJ heat shock protein family (Hsp40) member B12), the entry reads cell gain with vemurafenib 0.42; lactate per cell with vemurafenib 1.62; inactive.
Knock-down of A4GALT (alpha 1,4-galactosyltransferase (P1PK blood group)) resulted in: cell gain with vemurafenib 0.02; lactate per cell with vemurafenib 0.72; inactive.
With knock-down of GPR34 (G protein-coupled receptor 34), the screen gave cell gain with vemurafenib 0.39; lactate per cell with vemurafenib 1.56; inactive.
Against KIAA0825, the values are cell gain with vemurafenib 0.78; lactate per cell with vemurafenib 1; inactive.
Silencing of MAPK8IP3 (mitogen-activated protein kinase 8 interacting protein 3) came out at: cell gain with vemurafenib 0.57; lactate per cell with vemurafenib 1.17; inactive.
Silencing of COL4A6 (collagen type IV alpha 6 chain) resulted in: cell gain with vemurafenib 0.78; lactate per cell with vemurafenib 0.68; inactive.
SLC25A39 scored cell gain with vemurafenib 0.88; lactate per cell with vemurafenib 0.84; inactive.
Against MUC20 (mucin 20, cell surface associated), the entry reads cell gain with vemurafenib 0.59; lactate per cell with vemurafenib 1.15; inactive.
After knock-down of TAPBP (TAP binding protein), the screen gave cell gain with vemurafenib 0.18; lactate per cell with vemurafenib 1.77; inactive.
MYO1D (myosin ID) scored cell gain with vemurafenib 1.06; lactate per cell with vemurafenib 0.55; inactive.
Against ADAMTS16 (ADAM metallopeptidase with thrombospondin type 1 motif 16), the values are cell gain with vemurafenib 0.97; lactate per cell with vemurafenib 0.74; inactive.
With knock-down of H3C10 (H3 clustered histone 10), the record shows cell gain with vemurafenib 0.46; lactate per cell with vemurafenib 1.17; inactive.
Against CENPU (centromere protein U), the entry reads cell gain with vemurafenib 0.78; lactate per cell with vemurafenib 1.08; inactive.
For NR4A2 (nuclear receptor subfamily 4 group A member 2), the values are cell gain with vemurafenib 0.71; lactate per cell with vemurafenib 0.95; inactive.
For PPM1D (protein phosphatase, Mg2+/Mn2+ dependent 1D), the entry reads cell gain with vemurafenib 0.47; lactate per cell with vemurafenib 1.25; inactive.
Silencing of GNAI1 (G protein subunit alpha i1) gave: cell gain with vemurafenib 1.15; lactate per cell with vemurafenib 0.55; inactive.
With knock-down of EDN3 (endothelin 3), the record shows cell gain with vemurafenib 0.11; lactate per cell with vemurafenib 0.2; active.
With knock-down of GTF3C2 (general transcription factor IIIC subunit 2) the results were cell gain with vemurafenib 0.87; lactate per cell with vemurafenib 1.09; inactive.
Knock-down of TBC1D1 (TBC1 domain family member 1) gave: cell gain with vemurafenib 0.64; lactate per cell with vemurafenib 1; inactive.

Laid out differently: results already given.
{"Gene": "PPID (peptidylprolyl isomerase D)", "cell gain with vemurafenib": 0.57, "lactate per cell with vemurafenib": 0.31, "outcome": "inactive"}
{"Gene": "ZNF619 (zinc finger protein 619)", "cell gain with vemurafenib": 0.94, "lactate per cell with vemurafenib": 0.66, "outcome": "inactive"}
{"Gene": "SF3B1 (splicing factor 3b subunit 1)", "cell gain with vemurafenib": 0.02, "lactate per cell with vemurafenib": 1.96, "outcome": "inactive"}
{"Gene": "OPRPN (opiorphin prepropeptide)", "cell gain with vemurafenib": 0.58, "lactate per cell with vemurafenib": 1.56, "outcome": "inactive"}
